The results are deposited in PubChem (AID912; NCATS, 2007).

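A cell-based FRET test of anthrax lethal toxin entry, tracked through the 460 nm emission signal; the cell line is not named here.
Each compound was tested as a concentration series from about 0.0005 to 40 µM.
The number is the fitted AC50 of the 460 nm signal alone; lower values mean a more potent effect. A falling signal goes with compounds filed as inhibitors or cytotoxic, a rising one with activators or fluorescent compounds (inferred from the filed classes).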

Values are in µM.
Common to all entries: measured here: 460 nm channel.
This is a side read-out of the assay, for part of the compounds, not drawn at random.
Potencies fitted to partial, single-point or poorly fitting curves are rough.
The first word of each remark tells which way the curve ran; it can be opposite to the aim of the assay.

Result for C[C@H]1O[C@@H](O[C@H]2[C@@H](O)C[C@H](O[C@H]3[C@@H](O)C[C@H](O[C@H]4CC[C@@]5(C)[C@H](CC[C@@H]6[C@@H]5C[C@@H](O)[C@]5(C)[C@@H](C7=CC(=O)OC7)CC[C@]65O)C4)O[C@@H]3C)O[C@@H]2C)C[C@H](O)[C@@H]1O was AC50 0.2512 µM (falling, full curve). For COc1cccc2[nH]c3c(N4CCN(Cc5ccc6c(c5)OCO6)CC4)ncnc3c12 the result was AC50 0.01995 µM (rising, full curve). Result for COCCn1c(=O)c(-c2cn(C)c3ccccc23)nc2cnc(Oc3ccccc3)nc21 was AC50 12.59 µM (rising, partial curve). Cc1cccc(OCc2n[nH]c(=S)o2)c1 gave AC50 12.59 µM (rising, partial curve, poor fit). COc1ccc(-c2cc(-c3ccccc3O)[nH]n2)cc1OC read AC50 10 µM (falling, partial curve). CCC(C)(C)n1nnnc1C(c1ccc(OC)c(OC)c1)N1CCN(c2ccccc2)CC1 (stereo not drawn) read AC50 0.631 µM (falling, partial curve). COc1ccc(N(Cc2cc3cc(OC)ccc3[nH]c2=O)C(=O)C2CCCO2)cc1 (stereo not drawn) read AC50 7.943 µM (rising, partial curve). Cn1cccc1C(=O)N1CCC2(CCN(C(=O)Nc3cccc(F)c3)CC2)CC1 gave AC50 5.012 µM (rising, partial curve).

NS(=O)(=O)c1ccc(CCNC(=O)Nc2ccc(Cl)cc2)cc1 gave AC50 1.259 µM (falling, full curve, poor fit). Result for O=C(CSc1nnnn1-c1cccnc1)NCc1cccs1 was AC50 0.005012 µM (rising, full curve, poor fit). For CCOC(=O)N1CCN(C(=O)c2oc3ccc(S(=O)(=O)N4CCCCC4)cc3c2C)CC1 the result was AC50 15.85 µM (rising, single point). With Cc1oc(-c2ccc(Cl)cc2)nc1CN1CCCC(C(=O)NCCCN2CCOCC2)C1 (stereo not drawn) the assay gave AC50 12.59 µM (falling, partial curve). For Cc1cc(C)c2nc(N3CCCN(C(=O)c4cnccn4)CC3)c(C#N)cc2c1 the result was AC50 12.59 µM (rising, partial curve). With Cc1ccc(-c2nnc(CSc3nnc(COc4ccccc4)n3-c3ccc(C)cc3)o2)cc1 the assay gave AC50 31.62 µM (falling, single point). Result for O=C(CS(=O)(=O)Cc1ccccc1)N1CCN(C(=O)c2ccco2)CC1 was AC50 31.62 µM (rising, single point). With COCCNCC(=O)NC12CC3CC(CC(C3)C1)C2 the assay gave AC50 0.5012 µM (falling, partial curve).

COC(=O)c1cccc(N2C(=O)c3cccnc3C2=O)c1 gave AC50 0.02512 µM (falling, full curve, poor fit). Result for O=C(c1cc(-c2ccccn2)nc2c(Cl)cccc12)N1CCN(C(=O)C2CCCO2)CC1 (stereo not drawn) was AC50 3.981 µM (falling, partial curve). Result for Cc1nnc(NS(=O)(=O)c2ccc(N)cc2)s1 was AC50 12.59 µM (rising, single point). c1ccc2c(NCCN3CCOCC3)nc(-c3ccoc3)nc2c1 gave AC50 5.012 µM (falling, single point). Result for NC1(C(=O)O)C[C@@H](C(=O)O)[C@H](C(=O)O)C1 was AC50 1.259 µM (falling, full curve). Result for COC(=O)[C@@]1(Cc2ccc(OC)cc2)[C@H]2c3cc(C(=O)N(C)C)n(CCc4ccc(OC)c(Br)c4)c3C[C@H]2CN1C(=O)c1ccccc1 was AC50 3.162 µM (falling, partial curve). With COc1cc(C(=O)OCCCN2CCCN(CCCOC(=O)c3cc(OC)c(OC)c(OC)c3)CC2)cc(OC)c1OC the assay gave AC50 0.05012 µM (rising, full curve, poor fit). Cn1cc(-c2nc3cncnc3n(Cc3ccccc3Cl)c2=O)c2ccccc21 read AC50 3.981 µM (rising, full curve).

With C=CCn1c(SCC(=O)NCc2cccs2)nnc1C1CCCCC1 the assay gave AC50 0.003981 µM (falling, full curve). Result for CC/C(=C(\c1ccccc1)c1ccc(OCCN(C)C)cc1)c1ccccc1 was AC50 25.12 µM (falling, partial curve). COCCOC(=O)C1=C(C)NC2=C(C(=O)CCC2)C1c1cc2c(cc1Br)OCO2 (stereo not drawn) read AC50 3.162 µM (rising, single point). COC(=O)N[C@H](c1ccccc1)[C@@]1(C)C[C@@H]1[C@@H](C)C(=O)Nc1ccc2ccccc2c1 read AC50 31.62 µM (falling, single point). COc1ccc(CCN2CNc3c(c(=O)n(C)c(=O)n3C)C2)cc1 read AC50 12.59 µM (rising, single point). For COc1ccc2cc1Oc1ccc(cc1)C[C@H]1c3cc(c(OC)cc3CCN1C)Oc1c(OC)c(OC)cc3c1[C@@H](C2)N(C)CC3 the result was AC50 15.85 µM (falling, partial curve).

Repeated from the top, 3 entries:

structure	AC50 (µM)	curve
C[C@H]1O[C@@H](O[C@H]2[C@@H](O)C[C@H](O[C@H]3[C@@H](O)C[C@H](O[C@H]4CC[C@@]5(C)[C@H](CC[C@@H]6[C@@H]5C[C@@H](O)[C@]5(C)[C@@H](C7=CC(=O)OC7)CC[C@]65O)C4)O[C@@H]3C)O[C@@H]2C)C[C@H](O)[C@@H]1O	0.2512	falling, full curve
COc1cccc2[nH]c3c(N4CCN(Cc5ccc6c(c5)OCO6)CC4)ncnc3c12	0.01995	rising, full curve
COCCn1c(=O)c(-c2cn(C)c3ccccc23)nc2cnc(Oc3ccccc3)nc21	12.59	rising, partial curve